In PubChem BioAssay AID1487 (National Center for Advancing Translational Sciences (NCATS), 2009):
This is one part of the list. These are further read-outs of the screen, such as a control signal, another cell line or another target. No call is given for them. Most of these compounds were active or inconclusive in the main read-out, so they are no random draw. Potencies come from curve fits of mixed quality, noted in brackets.

Assay: qHTS Assay for Modulators of Lamin A Splicing
Settings: HeLa LMNA splicing GFP/RFP minigene ratio, 48 h
Outline: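 S3 HeLa cells stably expressing lamin A-EGFP splicing minigene plus DsRed2, 600 cells/well, 48 h compound exposure at 37C. Laser-scanning cytometry; analysed as GFP (500-530 nm)/RFP (575-640 nm) total intensity ratio; 0.5% DMSO vehicle.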

[1] = measured here: GFP splicing reporter channel
[2] = measured here: RFP viability control channel

With Cc1ccc(SCCNC(=O)c2ccc(C)c(S(=O)(=O)Nc3cccc(C)c3)c2)cc1 as the molecule, how does the AC50 [1] read?
The AC50 was 35.5 µM [falling, single point].

What about the AC50 [2] of the same molecule?
The AC50 was 25.1 µM [falling, single point].

For COc1ccc(Cl)cc1C(=O)Nc1ccccc1N1CCN(C(=O)C(C)C)CC1, which AC50 [2] is on record?
The AC50 was 28.2 µM [rising, single point].

For CC(C)c1cc(CN2CCN(Cc3ccc(F)c(F)c3)C(CCO)C2)[nH]n1 (configuration not stated), which AC50 [2] is on record?
Its AC50 is 22.4 µM [falling, partial curve, poor fit].

For CCOc1ccc(CCNC(=O)C2CCN(C(=O)N3CC(CC)Oc4ccccc43)CC2)cc1 (configuration not stated), which AC50 [1] is on record?
The AC50 was 0.0316 µM [falling, full curve, poor fit].

For CCOCCCN(Cc1ccco1)S(=O)(=O)c1cc2c(cc1Cl)NC(=O)CO2, which AC50 [1] is on record?
Its AC50 is 0.562 µM [rising, full curve, poor fit].

With O=C(Cn1c(-c2ccccc2)c[n+]2ccsc12)c1ccc([N+](=O)[O-])cc1 as the molecule, how does the AC50 [2] read?
Its AC50 is 11.2 µM [rising, partial curve].

With COc1cccc(CNC(=O)CCS(=O)(=O)c2ccc3c(c2)oc(=O)n3C)c1 as the molecule, how does the AC50 [1] read?
Its AC50 is 0.00316 µM [falling, full curve, poor fit].

And the AC50 [2]?
Its AC50 is 0.01 µM [falling, full curve, poor fit].

For O=C(c1cc2ccccc2oc1=O)N(c1ccc(Cl)cc1)C1C=CS(=O)(=O)C1 (configuration not stated), which AC50 [2] is on record?
The AC50 was 17.8 µM [rising, partial curve].

For CN(C)S(=O)(=O)c1ccc(N2CCCC2)c(C(=O)Nc2nc3c(ccc4ccccc43)s2)c1, which AC50 [1] is on record?
The AC50 was 14.1 µM [rising, single point].

And the AC50 [2]?
The AC50 was 17.8 µM [rising, single point].

Which AC50 [2] does the source give for CCOC(=O)N1CCN(Cc2nc3c(c(=O)n(C)c(=O)n3C)n2Cc2cccc3ccccc23)CC1 here?
Its AC50 is 22.4 µM [rising, single point].

For CC(Oc1ccc(F)cc1)C(=O)Nc1sc2c(c1C(=O)NCc1cccnc1)CCCC2 (configuration not stated), which AC50 [1] is on record?
The AC50 was 35.5 µM [rising, single point].

What about the AC50 [2] of the same molecule?
The AC50 was 31.6 µM [rising, single point].

With CC1CN(C(=O)c2cc3cc([N+](=O)[O-])ccc3oc2=O)CC(C)O1 (configuration not stated) as the molecule, how does the AC50 [1] read?
Its AC50 is 7.08 µM [falling, full curve, poor fit].

With COC(=O)C1C(C(C)C)N(c2ccccc2)OC1(C)O (configuration not stated) as the molecule, how does the AC50 [1] read?
The AC50 was 6.31 µM [falling, single point].

And the AC50 [2]?
Its AC50 is 5.62 µM [falling, single point].

With O=C(Nc1cccc(S(=O)(=O)C(F)F)c1)c1ccc(S(=O)(=O)N2CCCC2)cc1 as the molecule, how does the AC50 [1] read?
Its AC50 is 31.6 µM [falling, single point].

What does the source list for C(=N\NC(=Nc1ccccc1)c1ccccn1)/c1ccccn1?
AC50 [1]: 2.51 µM [falling, partial curve]; AC50 [2]: 35.5 µM [rising, single point]

Which AC50 [2] does the source give for O=C(c1ccccc1)N(c1ccccc1)C1C=CS(=O)(=O)C1 (configuration not stated) here?
Its AC50 is 0.0282 µM [rising, full curve, poor fit].

For CC12CC(NC(=O)N1c1cccc(C(=O)NCc3ccc4c(c3)OCO4)c1)c1cc(Cl)ccc1O2 (configuration not stated), which AC50 [2] is on record?
Its AC50 is 25.1 µM [rising, single point].

For Cc1ccccc1/C=N/Nc1ccnc2cc(Cl)ccc12, which AC50 [1] is on record?
The AC50 was 15.8 µM [rising, single point].

And the AC50 [2]?
The AC50 was 31.6 µM [rising, single point].

For Cc1csc(NC(=O)CCCSc2nc3ccccc3s2)n1, which AC50 [2] is on record?
The AC50 was 15.8 µM [rising, single point].

Which results are given for Cc1ccccc1-c1nc(SCC(=O)NCc2ccco2)c2c(=O)n(C)c(=O)n(C)c2n1?
AC50 [1]: 0.316 µM [rising, partial curve, poor fit]; AC50 [2]: 0.398 µM [rising, partial curve, poor fit]

Which AC50 [2] does the source give for CCCOc1ccccc1C1NC(=O)NC(C)=C1C(=O)OCCOCC (configuration not stated) here?
The AC50 was 1.58 µM [rising, partial curve].

With Cc1[nH]c2ccccc2c1C(=O)CSC(=S)N(C)C1CCCCC1 as the molecule, how does the AC50 [1] read?
Its AC50 is 12.6 µM [rising, partial curve].

And the AC50 [2]?
The AC50 was 15.8 µM [rising, partial curve].

Which AC50 [2] does the source give for O=C(Nc1nc2ccc(S(=O)(=O)N3CCCC3)cc2s1)c1ccccn1 here?
The AC50 was 35.5 µM [falling, single point].

For Cc1cc(Cl)nc2c(C(C)C)cccc12, which AC50 [1] is on record?
The AC50 was 1.41 µM [rising, partial curve, poor fit].

What about the AC50 [2] of the same molecule?
The AC50 was 2.24 µM [rising, single point].

For Cc1nc2ccccc2n1CC(O)Cn1c(C(F)(F)F)nc2ccccc21 (configuration not stated), which AC50 [2] is on record?
Its AC50 is 31.6 µM [rising, single point].

Which AC50 [2] does the source give for CC(=O)c1ccc(NC(=S)NC(C)c2ccc(Cl)cc2Cl)cc1 (configuration not stated) here?
Its AC50 is 20 µM [rising, single point].

Which AC50 [2] does the source give for CCC(=O)c1ccc(OCC(O)Cn2nc(C)c(C(C)=O)c2C)cc1 (configuration not stated) here?
Its AC50 is 0.178 µM [falling, full curve, poor fit].

Which AC50 [2] does the source give for Cc1onc(-c2ccccc2Cl)c1C(=O)Nc1cccc2nsnc12 here?
Its AC50 is 10 µM [rising, single point].

Which results are given for CCOC(=O)/C(=C\c1cccnc1)C(=O)c1cc(C(C)=O)c(Nc2ccccc2)s1?
AC50 [1]: 5.62 µM [falling, single point]; AC50 [2]: 3.16 µM [falling, single point]

With COc1ccccc1CNC(=S)NCCc1ccccc1 as the molecule, how does the AC50 [2] read?
The AC50 was 20 µM [rising, single point].

Which AC50 [1] does the source give for CCN(CC)c1ccc(N=Cc2ccccc2[N+](=O)[O-])cc1 here?
Its AC50 is 12.6 µM [rising, partial curve].

And the AC50 [2]?
Its AC50 is 25.1 µM [rising, partial curve].

For COCc1nc2ccccc2n1Cc1c(F)cccc1Cl, which AC50 [1] is on record?
Its AC50 is 0.0282 µM [rising, full curve, poor fit].

For Cc1nn(C)c2ncc(C(N)=O)c(Oc3ccc(Cl)cc3)c12, which AC50 [1] is on record?
The AC50 was 0.00501 µM [falling, full curve, poor fit].

What about the AC50 [2] of the same molecule?
Its AC50 is 14.1 µM [falling, partial curve, poor fit].

For CC(=O)N1CCN(c2nc(CC(C)C)c3c(c2C#N)CCC3)CC1, which AC50 [2] is on record?
The AC50 was 0.00447 µM [rising, full curve, poor fit].

With O=C(NNC(=O)c1ccccc1Cl)c1ccccc1Cl as the molecule, how does the AC50 [1] read?
Its AC50 is 0.0708 µM [rising, full curve].

With CO[C@H]1C=CO[C@]2(C)Oc3c(C)c(O)c4c(O)c(c5c(c4c3C2=O)NC2(CCN(CC(C)C)CC2)N=5)=NC(=O)C(C)=CC=C[C@@H](C)[C@@H](O)[C@@H](C)[C@@H](O)[C@@H](C)[C@@H](OC(C)=O)[C@@H]1C as the molecule, how does the AC50 [1] read?
Its AC50 is 1.41 µM [falling, partial curve, poor fit].

For Cc1ccc(C(=O)NC(=S)NNC(=O)COc2ccccc2C)cc1, which AC50 [2] is on record?
Its AC50 is 17.8 µM [rising, single point].

For CN1C(=O)N(C)c2ccc(C=O)c3cccc1c23, which AC50 [2] is on record?
The AC50 was 3.55 µM [rising, full curve].

For Cc1cc(NC(=O)c2ccc(F)cc2)n(-c2ccccn2)n1, which AC50 [2] is on record?
The AC50 was 35.5 µM [falling, single point].

For CN1CCOc2cc(S(=O)(=O)Nc3ccc(F)cc3)ccc21, which AC50 [1] is on record?
Its AC50 is 11.2 µM [rising, single point].

For c1csc(CCNc2ncnc3sc4c(c23)CCC4)c1, which AC50 [2] is on record?
Its AC50 is 5.01 µM [rising, partial curve].

Which AC50 [1] does the source give for O=C(CCNC(=O)Cn1ccc2ccccc2c1=O)NCCC1=CCCCC1 here?
The AC50 was 20 µM [rising, partial curve].

Which AC50 [1] does the source give for CC[C@]1(O)CC2CN(CCc3c([nH]c4ccccc34)[C@@](C(=O)OC)(c3cc4c(cc3OC)N(C=O)[C@H]3[C@@](O)(C(=O)OC)[C@H](OC(C)=O)[C@]5(CC)C=CCN6CC[C@]43[C@@H]65)C2)C1 (some centres not stated) here?
The AC50 was 0.158 µM [falling, full curve, poor fit].

What about the AC50 [2] of the same molecule?
Its AC50 is 0.0282 µM [falling, full curve].

Which AC50 [1] does the source give for C/C(N)=C(/C#N)C(=O)COC(=O)CNS(=O)(=O)c1c(F)cccc1F here?
The AC50 was 0.158 µM [rising, full curve, poor fit].

With CCOC(=O)C1(CCCc2ccccc2)CCN(C(=O)c2cc(C)nc(C)n2)CC1 as the molecule, how does the AC50 [1] read?
Its AC50 is 10 µM [falling, partial curve, poor fit].

And the AC50 [2]?
Its AC50 is 10 µM [falling, partial curve, poor fit].

For CN(c1ccc(O)cc1)c1nc(-c2ccccc2)cs1, which AC50 [2] is on record?
The AC50 was 0.1 µM [rising, full curve].

With O=S(Cc1ccc(Br)cc1)Cc1nnc(SCc2c(F)cccc2Cl)n1-c1ccccc1 (configuration not stated) as the molecule, how does the AC50 [1] read?
The AC50 was 5.01 µM [rising, partial curve, poor fit].

And the AC50 [2]?
The AC50 was 4.47 µM [rising, full curve].

For CC(=O)c1ccc(S(=O)(=O)N2CCN(C)CC2)cc1, which AC50 [2] is on record?
The AC50 was 0.794 µM [falling, partial curve].

For Cc1cccc(OCCCSc2nc3ccc(C)cc3[nH]2)c1, which AC50 [1] is on record?
Its AC50 is 22.4 µM [rising, single point].

What about the AC50 [2] of the same molecule?
The AC50 was 35.5 µM [rising, single point].

With COc1ccc(C(=O)N2CCN(Cc3cc(=O)n4nc(-c5ccccc5C)sc4n3)CC2)cc1OC as the molecule, how does the AC50 [1] read?
Its AC50 is 1 µM [rising, partial curve, poor fit].

With O=C(NCCc1ccccc1)C(c1ccccc1)N(C(=O)c1csnn1)C1CC1 (configuration not stated) as the molecule, how does the AC50 [1] read?
The AC50 was 0.316 µM [rising, partial curve, poor fit].

Which AC50 [1] does the source give for COc1ccc(N(CC(=O)N2CCc3ccccc32)S(=O)(=O)c2c(C)noc2C)cc1 here?
Its AC50 is 10 µM [rising, partial curve].

With COc1ccc(-c2noc(Cc3ccc(Cl)cc3)n2)cc1OC as the molecule, how does the AC50 [1] read?
Its AC50 is 15.8 µM [rising, single point].

And the AC50 [2]?
Its AC50 is 28.2 µM [rising, single point].

Which AC50 [2] does the source give for Fc1ccccc1-c1ccc(/C=N/Nc2nc3ccccc3[nH]2)o1 here?
The AC50 was 3.16 µM [rising, partial curve].
